{
  "source": "paper PMC7819943",
  "about": "“Rice protein-binding microarrays: a tool to detect cis-acting elements near promoter regions in rice”",
  "note": "The other results are listed elsewhere or left out.",
  "data": [
    {"target": "T1, OsSMF1 (Oryza sativa, UniProt Q6ZLB0 1-436)", "T1 sequence": "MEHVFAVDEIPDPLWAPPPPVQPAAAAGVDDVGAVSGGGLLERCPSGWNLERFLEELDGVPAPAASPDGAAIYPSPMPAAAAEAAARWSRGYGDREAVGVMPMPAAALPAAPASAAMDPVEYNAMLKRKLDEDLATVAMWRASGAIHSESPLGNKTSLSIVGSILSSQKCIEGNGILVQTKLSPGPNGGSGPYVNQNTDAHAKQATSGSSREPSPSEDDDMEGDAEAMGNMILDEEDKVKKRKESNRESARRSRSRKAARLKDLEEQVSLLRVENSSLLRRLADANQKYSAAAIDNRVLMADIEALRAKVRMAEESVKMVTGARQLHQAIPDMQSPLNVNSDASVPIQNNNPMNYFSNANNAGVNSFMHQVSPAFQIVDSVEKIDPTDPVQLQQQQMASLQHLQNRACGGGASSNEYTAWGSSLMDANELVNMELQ", "experiment": "protein-binding microarray (RPBM); PBS, 2% BSA, 51.3 ng/ul salmon testes DNA, 50 uM zinc acetate, 200 nM TF, 25 C, 1 h; high values mean tight binding", "conditions": "protein: recombinant; tags: N-terminal polyhistidine and DsRed monomer fusion (pET32a); chain copies: 2; label: CyDye5-dUTP incorporated in the synthesized complementary strand; 3' TTTTT single-stranded linker to array surface; dsDNA, one strand shown", "how_it_was_run": "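For the binding signal, per-feature fluorescence intensity was read in arbitrary units on an Axon 4000B scanner. Before scanning, a 2% BSA-blocked custom Agilent array made double-stranded with Cy5-dUTP was washed after 1 h at 25 °C with 200 nM protein and 50 µM zinc acetate. The proteins were Ni–NTA-purified transcription factors with N-terminal polyhistidine and DsRed fusions, expressed in E. coli BL21-CodonPlus.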", "values": [
      {"sequence": "AGGAACGACACTGAACCGTTCCACTCCATGGCAGAAATCTCGGAGTCACCTAGTGCAG", "binding signal": "6450 fluorescence intensity (a.u.)"},
      {"sequence": "TTCCCAGCCCACCACGTCCTCTCTGGCTTCATGTAACATCCGGAGTCACCTAGTGCAG", "binding signal": "4010 fluorescence intensity (a.u.)"},
      {"sequence": "CATTGCCATGCCTATGCGTTTGTAACAGAATTTAGAGGAGCGGAGTCACCTAGTGCAG", "binding signal": "16300 fluorescence intensity (a.u.)"},
      {"sequence": "GCATGCCCATGCAAAACCAGCTCAGCTCACTACACTACACCGGAGTCACCTAGTGCAG", "binding signal": "3250 fluorescence intensity (a.u.)"},
      {"sequence": "CCCCTCAAGGGATGACTGGACTTTTCCAAATGACGAATTTCGGAGTCACCTAGTGCAG", "binding signal": "3290 fluorescence intensity (a.u.)"},
      {"sequence": "ACCACCAGTAGAAGTAAAACCGCGGGGCCCACGTGTAGGCCGGAGTCACCTAGTGCAG", "binding signal": "5330 fluorescence intensity (a.u.)"},
      {"sequence": "CCCACCATTGCCGCCGTGTCCGGCAACCTAACGAACCTCGCGGAGTCACCTAGTGCAG", "binding signal": "4100 fluorescence intensity (a.u.)"},
      {"sequence": "CTGAACACACAGCAGGCTCACGTAGGCCACGCCACCTCACCGGAGTCACCTAGTGCAG", "binding signal": "4450 fluorescence intensity (a.u.)"},
      {"sequence": "TAACACTAGAATGATTCAGACAGGCCAAGCCTCCCAAGGTCGGAGTCACCTAGTGCAG", "binding signal": "3190 fluorescence intensity (a.u.)"},
      {"sequence": "ACATAGCAGCAGGCGGCGACCTCGGTTTACGGAAAGTCAACGGAGTCACCTAGTGCAG", "binding signal": "24600 fluorescence intensity (a.u.)"},
      {"sequence": "CCACGCGTCGTCGACGTACTGCGCGATGACGGCGGACTCGCGGAGTCACCTAGTGCAG", "binding signal": "4700 fluorescence intensity (a.u.)"},
      {"sequence": "CTTGCCGCAGCGCCTGCGAGGCGTTCGGCCGACCTGAGTACGGAGTCACCTAGTGCAG", "binding signal": "29500 fluorescence intensity (a.u.)"},
      {"sequence": "TTGTCGTCCACGCCGCCATCTCCTTGGTCATCCGCAACAACGGAGTCACCTAGTGCAG", "binding signal": "3430 fluorescence intensity (a.u.)"},
      {"sequence": "GTGTTGTGTCGGGTGGTATGTTATTTACTCGTGTTGAGTTCGGAGTCACCTAGTGCAG", "binding signal": "3500 fluorescence intensity (a.u.)"},
      {"sequence": "CCAGGCTACCGGATCCGGTGACCCCGACCGCACTGCGGCGCGGAGTCACCTAGTGCAG", "binding signal": "3950 fluorescence intensity (a.u.)"},
      {"sequence": "TTTATAGACACTTTAGCTGACTGTTGGAGTGGAATAATACCGGAGTCACCTAGTGCAG", "binding signal": "3280 fluorescence intensity (a.u.)"},
      {"sequence": "TGGATCGAACACACATACGTGGCAACCAAGTCTTCTGCTCCGGAGTCACCTAGTGCAG", "binding signal": "12600 fluorescence intensity (a.u.)"},
      {"sequence": "GCGCGGAGGCGTTCAGGAACGCGGACTTGGTGACGAAGTGCGGAGTCACCTAGTGCAG", "binding signal": "4480 fluorescence intensity (a.u.)"},
      {"sequence": "GTGGGTGCTCTCATGGTGAGAGATTACGTGGAGAAATGAGCGGAGTCACCTAGTGCAG", "binding signal": "4690 fluorescence intensity (a.u.)"},
      {"sequence": "CTCGTTTCTCCTACCTTTGGCCTGCCCATTAATGGCCCCTCGGAGTCACCTAGTGCAG", "binding signal": "3400 fluorescence intensity (a.u.)"},
      {"sequence": "GTACGTCGCCGCGCTCTTGGAGCTTGGTCAACCCTCGGCACGGAGTCACCTAGTGCAG", "binding signal": "3270 fluorescence intensity (a.u.)"},
      {"sequence": "GCCATCGCCGCCCTGAAGCCCCAATCCAGGGCGGCCTCCCCGGAGTCACCTAGTGCAG", "binding signal": "3810 fluorescence intensity (a.u.)"},
      {"sequence": "CAACACTTTATCCATGTATATCATGCTGTTTCATTACATTCGGAGTCACCTAGTGCAG", "binding signal": "4400 fluorescence intensity (a.u.)"},
      {"sequence": "ATTTGGTTGTCAGCGTGGCGTCACAACTCTGGGCCGTTGCCGGAGTCACCTAGTGCAG", "binding signal": "8720 fluorescence intensity (a.u.)"},
      {"sequence": "GCAGCAATATAATGGCGACGGCGGCGAGGCTGCTCCTCCTCGGAGTCACCTAGTGCAG", "binding signal": "29800 fluorescence intensity (a.u.)"},
      {"sequence": "AGTGTCATACTCTGCTCATGACATCATACTGTTATCAAGTCGGAGTCACCTAGTGCAG", "binding signal": "3340 fluorescence intensity (a.u.)"},
      {"sequence": "TTCACATATAAATTAATAAAGAAATGGTGGGGCCACGTGGCGGAGTCACCTAGTGCAG", "binding signal": "6520 fluorescence intensity (a.u.)"},
      {"sequence": "GAGAAGCATATGCTGCTTTGCTTTGTCAGCTTCCTTGGGTCGGAGTCACCTAGTGCAG", "binding signal": "9360 fluorescence intensity (a.u.)"},
      {"sequence": "GAATGCCTTTTCCACATGTACATGTGGGTACCTGCACTACCGGAGTCACCTAGTGCAG", "binding signal": "4650 fluorescence intensity (a.u.)"},
      {"sequence": "AACCCCAGAAACCAGAGGCGGGCTGGTTGATCCATTCTTTCGGAGTCACCTAGTGCAG", "binding signal": "45000 fluorescence intensity (a.u.)"},
      {"sequence": "GACCCACCTTTGGTGGGGTAGCTGGTGCCAGCGGAAGGGGCGGAGTCACCTAGTGCAG", "binding signal": "3380 fluorescence intensity (a.u.)"},
      {"sequence": "GTTTATTTGGGAGTAACTTATTCTACGTAAGCTTCTAATGCGGAGTCACCTAGTGCAG", "binding signal": "3410 fluorescence intensity (a.u.)"},
      {"sequence": "GGTTGCCATATTTGCTTGTTATGCCGATGTGGACAAGCTTCGGAGTCACCTAGTGCAG", "binding signal": "5600 fluorescence intensity (a.u.)"},
      {"sequence": "CGGCACTGACACGTGTGTACCTCCGCCGAGTCGGTCTCCCCGGAGTCACCTAGTGCAG", "binding signal": "10300 fluorescence intensity (a.u.)"},
      {"sequence": "TCCCGGCGCATGACAGCCACGACGTCCCACATGAGCTGGTCGGAGTCACCTAGTGCAG", "binding signal": "3870 fluorescence intensity (a.u.)"},
      {"sequence": "AAGGCGGCGGGTTCGTCCACCTCCTTGCGCCCACCCCTGACGGAGTCACCTAGTGCAG", "binding signal": "4410 fluorescence intensity (a.u.)"},
      {"sequence": "GACGACCAGTTAGCCATCGTCGGTCGACGACCAATCAGATCGGAGTCACCTAGTGCAG", "binding signal": "4660 fluorescence intensity (a.u.)"},
      {"sequence": "CCTAATTCCTACTCGTACTACGTTTCTAAATCCAATGCATCGGAGTCACCTAGTGCAG", "binding signal": "3410 fluorescence intensity (a.u.)"},
      {"sequence": "TAGGGTTTTCTCGTCGCCGGGTCGGTGTCATCTCTCCTGCCGGAGTCACCTAGTGCAG", "binding signal": "4110 fluorescence intensity (a.u.)"},
      {"sequence": "GTGGTGTTGGATAGTTTGATAGGCTGCTTCCCTACTAGGCCGGAGTCACCTAGTGCAG", "binding signal": "3170 fluorescence intensity (a.u.)"},
      {"sequence": "GCTAATGCTGCCGTTCGTGTCACATCAGCGACCGGATTCACGGAGTCACCTAGTGCAG", "binding signal": "5840 fluorescence intensity (a.u.)"},
      {"sequence": "CGCATGCGCGCCAGCAGCTAGCAACCCCTTTAAATATGACCGGAGTCACCTAGTGCAG", "binding signal": "16900 fluorescence intensity (a.u.)"}
    ]}
  ]
}
